PubChem BioAssay AID1224826 | NIAID, 2016

Test: 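Knock-downs that raise or lower Tnf reporter signal after endotoxin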 (primary screen)
Cells: RAW264.7 G9 macrophages from mouse bearing reporters for p65 (GFP) and the Tnf promoter (mCherry)
Reagent: siRNA pool against mouse genes, 100 nM
Time to read-out: 16 h of LPS stimulation, after 2 days of siRNA transfection
Challenge: bacterial lipopolysaccharide (Salmonella minnesota R595), 10 ng/ml
Detection: 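Imaged Tnf reporter mCherry in nuclei, minus background, normalised per plate to the median and expressed as robust z-scores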
Scale: Tnf reporter robust z-score: higher = stronger Tnf promoter reporter signal after LPS; Tnf reporter intensity: higher = stronger Tnf promoter reporter signal
Call rule: 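Called active when robust z-score is at most -1.3, matching the median of the Tlr4 knock-down control, or over 3; control wells and wells with under 50 cells never active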
Calls: active = Tnf reporter clearly lowered or raised; inactive = no clear change in Tnf reporter
The whole screen tested about 17,000 reagents; this is a part drawn at random. About 1,110 of all reagents (6.6%) were called active. 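Active means lowered or raised reporter signal; replicate intensities are raw and not normalised per plate.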

target,Tnf reporter robust z-score,fewer than 50 cells in well,"Tnf reporter intensity, replicate 1","Tnf reporter intensity, replicate 2",call
Cplx4,-0.93,enough cells in well,104,109,inactive
Wdpcp,-0.51,enough cells in well,150,128,inactive
Qdpr,-0.13,enough cells in well,324,178,inactive
Slc35e2,0.53,enough cells in well,169,216,inactive
Pde6c,-0.05,enough cells in well,221,191,inactive
Uvrag,-0.26,enough cells in well,178,247,inactive
Hoxd10,-0.08,enough cells in well,209,203,inactive
Pcdhb4,1.79,enough cells in well,248,201,inactive
1110038F14Rik,1.02,enough cells in well,358,102,inactive
Anxa6,0.58,enough cells in well,221,180,inactive
Nudt4,0.3,enough cells in well,247,214,inactive
Trim47,5.39,enough cells in well,276,300,active
Mapk8ip2,-0.74,enough cells in well,151,117,inactive
Or5p56,-0.7,enough cells in well,144,87.9,inactive
Pcnx3,-0.85,enough cells in well,109,42.2,inactive
Cnot4,0.69,enough cells in well,284,275,inactive
Tpst1,0.56,enough cells in well,125,124,inactive
Or6n1,0.64,enough cells in well,89.4,143,inactive
Kpna4,-0.05,enough cells in well,250,138,inactive
Dctd,-1.33,enough cells in well,148,79.7,active
Poln,0.81,enough cells in well,170,141,inactive
Or5k3,-1.47,enough cells in well,52.8,57,active
Helt,0.93,enough cells in well,352,196,inactive
H2ac1,-0.33,enough cells in well,226,141,inactive
